## Percent effect of library compounds

Sequences of proteins named here, by UniProt entry; tags and fusion partners are left off. Residues count along the entry.
UniProt P9WFT3, whole entry: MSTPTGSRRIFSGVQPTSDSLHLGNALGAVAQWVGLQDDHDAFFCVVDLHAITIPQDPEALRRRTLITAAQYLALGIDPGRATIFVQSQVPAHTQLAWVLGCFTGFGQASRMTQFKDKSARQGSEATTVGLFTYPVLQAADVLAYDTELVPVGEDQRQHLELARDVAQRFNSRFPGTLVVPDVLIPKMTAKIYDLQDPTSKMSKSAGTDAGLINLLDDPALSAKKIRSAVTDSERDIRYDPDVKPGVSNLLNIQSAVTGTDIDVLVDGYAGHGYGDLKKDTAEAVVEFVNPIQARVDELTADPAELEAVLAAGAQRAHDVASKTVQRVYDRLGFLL
UniProt Q4DA54, 1-478: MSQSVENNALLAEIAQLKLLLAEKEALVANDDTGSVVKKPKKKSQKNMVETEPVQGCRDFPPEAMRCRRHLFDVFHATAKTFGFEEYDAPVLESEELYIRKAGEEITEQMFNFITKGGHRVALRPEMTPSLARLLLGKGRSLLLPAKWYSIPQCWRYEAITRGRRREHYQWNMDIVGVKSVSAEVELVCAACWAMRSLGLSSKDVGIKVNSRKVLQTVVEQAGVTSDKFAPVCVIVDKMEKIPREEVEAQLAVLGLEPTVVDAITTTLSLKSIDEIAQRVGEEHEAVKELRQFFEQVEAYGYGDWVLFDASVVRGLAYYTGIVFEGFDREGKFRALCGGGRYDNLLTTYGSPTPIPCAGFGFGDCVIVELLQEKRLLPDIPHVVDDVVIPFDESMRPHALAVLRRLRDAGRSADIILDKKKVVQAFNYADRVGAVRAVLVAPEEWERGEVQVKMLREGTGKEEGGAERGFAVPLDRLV
UniProt Q8IDJ8, 1-583: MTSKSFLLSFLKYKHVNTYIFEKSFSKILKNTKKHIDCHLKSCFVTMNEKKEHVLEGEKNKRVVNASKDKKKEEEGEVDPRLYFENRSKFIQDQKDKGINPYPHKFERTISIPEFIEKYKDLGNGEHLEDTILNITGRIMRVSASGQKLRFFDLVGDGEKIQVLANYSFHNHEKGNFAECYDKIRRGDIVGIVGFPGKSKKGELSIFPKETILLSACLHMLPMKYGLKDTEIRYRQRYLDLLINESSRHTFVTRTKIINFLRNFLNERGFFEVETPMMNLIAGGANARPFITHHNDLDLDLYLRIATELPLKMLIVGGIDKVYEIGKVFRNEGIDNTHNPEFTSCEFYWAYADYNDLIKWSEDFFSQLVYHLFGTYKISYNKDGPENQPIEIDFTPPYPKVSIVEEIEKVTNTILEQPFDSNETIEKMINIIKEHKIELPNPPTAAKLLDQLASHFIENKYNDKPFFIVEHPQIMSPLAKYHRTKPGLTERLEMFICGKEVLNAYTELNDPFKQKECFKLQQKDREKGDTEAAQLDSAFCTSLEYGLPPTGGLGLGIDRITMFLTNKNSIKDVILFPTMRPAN
UniProt P9WNZ1, whole entry: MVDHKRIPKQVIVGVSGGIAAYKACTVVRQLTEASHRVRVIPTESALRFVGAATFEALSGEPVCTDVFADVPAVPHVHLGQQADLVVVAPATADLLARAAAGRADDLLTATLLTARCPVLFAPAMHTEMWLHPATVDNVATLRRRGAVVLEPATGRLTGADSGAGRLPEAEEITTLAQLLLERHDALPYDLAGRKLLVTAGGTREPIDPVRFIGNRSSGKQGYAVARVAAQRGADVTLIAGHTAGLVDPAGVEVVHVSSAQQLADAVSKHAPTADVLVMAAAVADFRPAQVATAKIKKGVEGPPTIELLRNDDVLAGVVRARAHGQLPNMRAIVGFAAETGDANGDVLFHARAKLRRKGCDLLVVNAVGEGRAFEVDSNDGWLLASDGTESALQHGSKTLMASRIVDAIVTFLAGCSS
UniProt I6X8D2, whole entry: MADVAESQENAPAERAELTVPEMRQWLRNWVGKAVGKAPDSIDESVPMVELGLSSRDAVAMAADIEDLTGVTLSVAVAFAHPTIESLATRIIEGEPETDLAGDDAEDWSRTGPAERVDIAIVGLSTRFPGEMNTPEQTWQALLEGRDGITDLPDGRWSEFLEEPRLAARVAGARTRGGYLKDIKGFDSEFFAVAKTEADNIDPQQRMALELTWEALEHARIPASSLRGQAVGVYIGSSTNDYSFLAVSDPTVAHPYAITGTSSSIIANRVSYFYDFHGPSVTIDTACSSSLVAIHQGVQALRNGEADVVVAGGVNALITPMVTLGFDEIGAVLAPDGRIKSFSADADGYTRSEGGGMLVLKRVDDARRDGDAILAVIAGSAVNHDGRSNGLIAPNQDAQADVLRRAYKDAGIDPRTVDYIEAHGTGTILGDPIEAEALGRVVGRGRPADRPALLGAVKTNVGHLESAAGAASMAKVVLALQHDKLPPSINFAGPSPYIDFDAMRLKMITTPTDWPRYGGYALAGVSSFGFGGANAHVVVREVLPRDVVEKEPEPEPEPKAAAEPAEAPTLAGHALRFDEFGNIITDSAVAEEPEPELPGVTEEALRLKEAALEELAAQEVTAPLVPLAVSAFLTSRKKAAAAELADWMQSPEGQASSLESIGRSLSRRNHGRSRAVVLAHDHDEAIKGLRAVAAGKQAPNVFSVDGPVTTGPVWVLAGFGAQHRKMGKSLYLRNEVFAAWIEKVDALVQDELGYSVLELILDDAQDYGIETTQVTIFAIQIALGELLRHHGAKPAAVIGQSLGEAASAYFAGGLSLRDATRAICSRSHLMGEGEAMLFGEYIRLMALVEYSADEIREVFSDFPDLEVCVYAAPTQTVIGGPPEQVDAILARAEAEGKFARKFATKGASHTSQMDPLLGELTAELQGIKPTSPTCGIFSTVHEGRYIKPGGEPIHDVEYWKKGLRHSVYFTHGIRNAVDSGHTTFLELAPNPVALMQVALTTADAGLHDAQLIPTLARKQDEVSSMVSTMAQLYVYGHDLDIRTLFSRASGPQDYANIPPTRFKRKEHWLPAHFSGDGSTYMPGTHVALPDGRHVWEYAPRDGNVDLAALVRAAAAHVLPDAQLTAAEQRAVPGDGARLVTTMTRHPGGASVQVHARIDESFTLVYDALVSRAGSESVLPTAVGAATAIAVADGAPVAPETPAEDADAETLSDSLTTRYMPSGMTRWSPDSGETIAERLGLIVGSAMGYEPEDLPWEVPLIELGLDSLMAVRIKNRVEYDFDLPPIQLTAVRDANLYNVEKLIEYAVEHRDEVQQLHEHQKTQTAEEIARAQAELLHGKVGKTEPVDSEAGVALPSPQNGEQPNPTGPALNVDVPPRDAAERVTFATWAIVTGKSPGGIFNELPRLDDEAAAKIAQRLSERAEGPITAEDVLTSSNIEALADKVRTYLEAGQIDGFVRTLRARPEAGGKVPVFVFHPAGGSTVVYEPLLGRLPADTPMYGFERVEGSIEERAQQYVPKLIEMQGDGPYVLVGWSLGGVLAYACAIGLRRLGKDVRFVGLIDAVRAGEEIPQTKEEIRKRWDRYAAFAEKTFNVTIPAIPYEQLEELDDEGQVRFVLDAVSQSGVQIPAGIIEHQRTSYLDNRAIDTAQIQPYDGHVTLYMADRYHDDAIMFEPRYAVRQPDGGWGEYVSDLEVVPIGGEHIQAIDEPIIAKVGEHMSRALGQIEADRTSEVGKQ

Each number is a percent effect as filed.
How 0% and 100% were set is not recorded. Most values in the screen are low, and negative values occur.
The compounds are a random part of those screened.
Two or more numbers in one place are separate tests of the same structure; such repeats can differ widely.
A dash means the value is not listed here; it may have been measured.

MtTrpRS: 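Tryptophan-tRNA ligase, Mycobacterium tuberculosis (UniProt P9WFT3). Enzyme assay of tryptophanyl-tRNA synthetase; the read-out is not stated. Tested at 10 µM. Higher most likely means stronger inhibition; the record gives no direction and few retests gave an IC50. About 65,000 compounds were tested under these conditions; 0.098% (about 64) showed 50% or more at least once.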
TcHisRS: 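Enzyme assay of histidyl-tRNA synthetase; the read-out is not stated. Target: Histidine-tRNA ligase, Trypanosoma cruzi CL Brener (UniProt Q4DA54). Compounds at 30 µM. Higher reads as stronger inhibition (inferred: compounds with an IC50 in retests scored well above the rest). Size under these conditions: about 69,000 compounds, about 31 of them at 50% or above in at least one test.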
PfKRS1: 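Lysine-tRNA ligase, Plasmodium falciparum 3D7 (UniProt Q8IDJ8). Enzyme assay of the cytosolic lysyl-tRNA synthetase in 384-well plates, read by luminescence. Compounds at 30 µM. Direction is inferred from only a few compounds that gave an IC50; most scored high, so higher reads as stronger inhibition. Size under these conditions: about 69,000 compounds, about 49 of them at 50% or above in at least one test.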
CoaBC: 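Enzyme assay of CoaBC with a phosphate dye (Biomol Green) read at 650 nm. Target: Coenzyme A biosynthesis protein CoaBC, Mycobacterium tuberculosis (UniProt P9WNZ1). Tested at 30 µM. Direction is inferred from only a few compounds that gave an IC50; most scored high, so higher reads as stronger inhibition. Most strong results did not repeat in a second test. About 67,000 compounds were tested under these conditions; 0.06% (about 40) showed 50% or more at least once.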
Pks13 thioesterase: 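Enzyme assay of the thioesterase domain of polyketide synthase 13; the read-out is not stated. Target: Polyketide synthase Pks13, Mycobacterium tuberculosis (UniProt I6X8D2). Tested at 30 µM. Higher reads as stronger inhibition (inferred from which compounds were picked for retests). Size under these conditions: about 67,000 compounds, about 300 of them at 50% or above in at least one test.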
Leishmania in macrophages: 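Cell assay of Leishmania donovani living inside macrophages; the read-out is not stated. Compounds at 30 µM. Direction is inferred from retests: higher values go with stronger inhibition. About 69,000 compounds were tested under these conditions; 1.5% (about 1,000) showed 50% or more at least once.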

| structure | MtTrpRS | TcHisRS | PfKRS1 | CoaBC | Pks13 thioesterase | Leishmania in macrophages |
|---|---|---|---|---|---|---|
| `O=C(O)C(c1ccc2c(c1)OCO2)N1CCCC1` (centres undefined) | -2.183% | 8.939% | 5.917% | 1.542% | -4.5% | -7.649% |
| `Cn1cccc1CNCc1nnc2n1CCCC2C(F)(F)F` (centres undefined) | 1.207% | 17.24% | 3.773% | 8.241% | -3.5% | 19.99% |
| `O=C(CCc1cccs1)N1CCCC(n2ccnc2)C1` (centres undefined) | -5.623% | 1.69% | 0.006727% | 4.707% | -30% | 18.53% |
| `COc1ccc(N2CCN(C(=O)Cn3nccc3C)CC2(C)C)cc1` | 0.1874% | 5.319% | 2.012% | -4.989% | -33.53% | 28.59% |
| `O=C(O)C(F)(F)F.[H][C@@]12COC[C@]1(CNC(=O)c1ccsc1)CN(Cc1cnn(C)c1)C2` | - | - | - | - | - | 16.93% |
| `CO[C@H]1C[C@@H]2CN(C(=O)c3cccc4c3OCCO4)C[C@@H]2C1` | 13.85% | 1.515% | 1.741% | -5.672% | -20.3% | - |
| `CN(C)CCO[C@H]1CN(C(=O)c2ccc3c(c2)OCO3)[C@@H]2COC[C@H]12` | -2.616% | 4.908% | -0.4792% | - | -27.85% | - |
| `O=C(O)C(F)(F)F.[H][C@@]12CN(Cc3csc(C)n3)C[C@]1([H])CN(C(=O)c1cccn1C)C2` | - | - | - | - | - | -7.302% |
| `Cn1cnc2c1C(COCC1CC1)CN(C(=O)c1cscn1)C2.O=C(O)C(F)(F)F` (centres undefined) | - | - | - | - | - | 17.44% & 3.912% |
| `N#Cc1ccc(SCCC(=O)N(Cc2cccnc2)C2CC2)cc1` | -1.3% | 7.937% | 4.782% | 7.231% | -3.879% | -13.37% |
| `CC(C)c1cc(CN2CCC(N)CC2)no1` | - | 2.312% | 4.367% | -2.331% | 11.6% | -9.071% |
| `CCn1ncc2c1C(COCC1CC1)N(C(=O)c1ccncn1)CC2` (centres undefined) | 5.136% | 4.908% | 0.9467% | - | -22.09% | - |
| `Cc1nc(CN2CCCC(NCc3ccc4c(c3)CCO4)C2)no1` (centres undefined) | 10.71% | 1.149% | -2.176% | -3.484% | -2.332% | 11.33% |
| `CC(C)N(C)CCNC(=O)N(C)CC1CCOCC1` | -7.143% | 10.92% | 2.725% | 2.016% | -16.82% | 11.98% |
| `Cc1cccn2c(=O)cc(OC(=O)c3ccc(OC(C)C)cc3)nc12` | 0.8862% | 6.098% | 2.348% | 1.772% | 17.09% | -6.573% & -4.71% |
| `CC1CCCCN1CCNC(=O)c1ccn(-c2cccc(F)c2)n1` (centres undefined) | 4.943% | -0.2907% | -0.8822% | 15.95% | -8.625% | -0.4682% |
| `CCC(CC)NC(=O)Cn1cc(C(N)=O)c(-c2ccccc2)n1` | 5.961% | -4.372% | -1.012% | 9.535% | -1.935% | 9.928% |
| `Cc1ccc(C(=O)O)cc1-c1cccc(C(C)N(C)C)c1` (centres undefined) | -2.293% | 8.287% | 0.6214% | 3.661% | 40.62% | 41.31% |
| `Cc1cc(CN(C)C(=O)c2cccc(CCC(C)(C)O)c2)no1` | -4.77% | 5.587% | 7.919% | 1.542% | -14.73% | 23.2% |
| `CCc1nccn1C1CCCN(C(=O)c2csc(COC)n2)C1` (centres undefined) | 0.6603% | 7.224% | 3.846% | 1.845% | -9.687% | 15.95% |
| `O=C(O)C(F)(F)F.[H][C@@]12CN(c3ccc(C)nn3)C[C@@H](C(=O)NCC3CC3)[C@]1([H])CCO2` | - | - | - | - | - | 2.551% |
| `O=C(O)C(F)(F)F.[H][C@@]12CCN(Cc3cccc(C#N)c3)[C@@]1([H])CC(=O)N2CCOC` | - | - | - | - | - | 8.249% |
| `CCC(C)(N)c1nc(=O)c(C)c(C)[nH]1` (centres undefined) | -0.6938% | 10.05% | 14.13% | -3.259% | -14.83% | 13.31% |
| `Nc1nccc(N2CCC(c3cc(Cc4ccccc4)n[nH]3)CC2)n1` | 4.49% | 8.036% | 1.953% | 4.906% | -38.86% | 63.85% |
| `CCS(=O)(=O)N1CCC2(CCCC(=O)N2C)CC1` | -0.08084% | 5.825% | 1.193% | 3.817% | -16.88% | -8.611% |
| `Cc1nnc(CNCC2(O)CCCN(Cc3ccc(F)c(F)c3)C2=O)[nH]1` (centres undefined) | 2.776% | 6.726% | 3.518% | 3.046% | -14.69% | 20.44% |
| `CCc1nnsc1C(=O)NCC1CN(CC(C)C)CCO1` (centres undefined) | -0.06915% | 8.434% | 3.078% | 3.96% | -13.39% | 10.06% |
| `CC(C)c1cc(NC(=O)CNC2CCc3ncnn3C2)on1` (centres undefined) | 1.699% | 1.554% | 3.418% | -36.98% | -9.432% | 0.5017% |
| `CNc1nc(CNC(=O)Nc2ccc([S+](C)[O-])c(F)c2)cs1` (centres undefined) | -0.387% | 2.041% | 0.2158% | 8.593% | -7.927% | 23.33% |
| `CC(NC(=O)NCC1(c2ccccc2)CCC1)c1nncn1C` (centres undefined) | -0.4873% | 0.7576% | 4.309% | 9.85% | -0.3933% | 9.665% |
| `CCOc1nnc(CN(C)C2CCCN(c3ccc(C)nn3)C2)s1` (centres undefined) | -0.8804% | 10.55% | 3.803% | 2.527% | -5.832% | 31.48% |
| `O=S(=O)(CCCn1cncn1)Cc1ccccc1Cl` | -0.6399% | 4.433% | 3.214% | 0% | 3.482% | 15.46% |
| `CN1CCCCCC1C(=O)NCCCn1ncc2ccccc21` (centres undefined) | 6.392% | 8.19% | 3.091% | 2.662% | -28.42% | 22.64% |

Measurements from “University of Dundee, Small-Polar-MMV Screening Library” (2021), ChEMBL document CHEMBL3988442.